Reference: the supplement of paper PMC10849652
The other results are listed elsewhere or left out.

Sequences of proteins named here, by UniProt entry; tags and fusion partners are left off. A change or cut given only in a name is not applied to a line headed by its entry.
UniProt Q9NX76: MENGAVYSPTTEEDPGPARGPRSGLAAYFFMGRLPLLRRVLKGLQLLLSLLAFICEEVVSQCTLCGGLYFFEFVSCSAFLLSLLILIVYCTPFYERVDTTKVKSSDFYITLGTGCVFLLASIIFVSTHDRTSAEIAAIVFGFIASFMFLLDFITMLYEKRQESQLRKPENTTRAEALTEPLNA
UniProt Q5EBM0: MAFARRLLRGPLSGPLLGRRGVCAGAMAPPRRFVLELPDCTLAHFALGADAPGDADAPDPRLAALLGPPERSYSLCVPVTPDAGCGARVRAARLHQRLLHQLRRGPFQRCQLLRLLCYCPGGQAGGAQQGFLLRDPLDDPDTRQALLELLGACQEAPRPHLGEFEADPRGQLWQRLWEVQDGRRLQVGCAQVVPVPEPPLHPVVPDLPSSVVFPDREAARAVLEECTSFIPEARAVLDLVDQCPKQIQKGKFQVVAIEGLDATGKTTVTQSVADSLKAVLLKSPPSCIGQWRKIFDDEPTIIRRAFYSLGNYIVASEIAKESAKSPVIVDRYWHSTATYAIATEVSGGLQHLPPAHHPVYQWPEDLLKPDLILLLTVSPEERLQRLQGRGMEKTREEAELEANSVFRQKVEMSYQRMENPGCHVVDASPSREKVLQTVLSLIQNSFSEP
UniProt P06732: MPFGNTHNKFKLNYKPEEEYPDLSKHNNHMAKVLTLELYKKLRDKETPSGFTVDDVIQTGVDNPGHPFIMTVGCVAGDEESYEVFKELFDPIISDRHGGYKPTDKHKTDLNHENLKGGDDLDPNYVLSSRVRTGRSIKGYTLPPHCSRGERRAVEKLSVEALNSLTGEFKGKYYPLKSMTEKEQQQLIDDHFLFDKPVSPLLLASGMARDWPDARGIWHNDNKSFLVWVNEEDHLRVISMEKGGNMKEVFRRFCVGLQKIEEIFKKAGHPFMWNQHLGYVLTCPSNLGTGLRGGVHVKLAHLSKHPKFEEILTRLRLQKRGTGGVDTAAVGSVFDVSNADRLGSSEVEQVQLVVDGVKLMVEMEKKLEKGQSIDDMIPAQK
UniProt Q8IY22: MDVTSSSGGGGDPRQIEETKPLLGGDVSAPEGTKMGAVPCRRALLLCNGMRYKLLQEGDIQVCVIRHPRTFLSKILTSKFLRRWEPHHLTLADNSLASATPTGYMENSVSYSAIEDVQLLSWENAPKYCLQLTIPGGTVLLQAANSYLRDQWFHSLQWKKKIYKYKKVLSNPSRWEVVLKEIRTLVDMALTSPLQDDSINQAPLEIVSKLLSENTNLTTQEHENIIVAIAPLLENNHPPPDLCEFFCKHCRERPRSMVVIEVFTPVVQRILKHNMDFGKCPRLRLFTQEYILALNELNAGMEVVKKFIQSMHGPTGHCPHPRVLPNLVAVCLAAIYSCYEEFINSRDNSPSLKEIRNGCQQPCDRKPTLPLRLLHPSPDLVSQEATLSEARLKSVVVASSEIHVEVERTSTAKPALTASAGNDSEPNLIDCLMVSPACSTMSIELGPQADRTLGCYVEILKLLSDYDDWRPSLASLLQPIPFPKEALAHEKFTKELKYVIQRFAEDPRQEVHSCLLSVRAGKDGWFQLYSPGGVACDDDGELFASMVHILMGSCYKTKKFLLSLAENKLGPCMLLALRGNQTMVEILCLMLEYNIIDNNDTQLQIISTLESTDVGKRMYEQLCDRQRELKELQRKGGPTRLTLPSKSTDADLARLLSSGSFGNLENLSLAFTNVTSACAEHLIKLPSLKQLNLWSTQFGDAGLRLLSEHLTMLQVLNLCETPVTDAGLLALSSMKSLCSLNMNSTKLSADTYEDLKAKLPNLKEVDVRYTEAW
UniProt O76071: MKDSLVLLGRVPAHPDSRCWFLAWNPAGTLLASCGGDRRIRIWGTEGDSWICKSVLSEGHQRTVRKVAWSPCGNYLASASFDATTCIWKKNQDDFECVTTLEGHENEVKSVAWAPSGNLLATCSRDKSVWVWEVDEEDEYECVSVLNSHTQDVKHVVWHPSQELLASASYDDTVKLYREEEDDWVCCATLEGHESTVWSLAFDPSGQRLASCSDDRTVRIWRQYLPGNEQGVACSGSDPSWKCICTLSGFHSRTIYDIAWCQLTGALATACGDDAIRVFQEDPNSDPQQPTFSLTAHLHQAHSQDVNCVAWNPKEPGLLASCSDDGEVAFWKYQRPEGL
UniProt P08123: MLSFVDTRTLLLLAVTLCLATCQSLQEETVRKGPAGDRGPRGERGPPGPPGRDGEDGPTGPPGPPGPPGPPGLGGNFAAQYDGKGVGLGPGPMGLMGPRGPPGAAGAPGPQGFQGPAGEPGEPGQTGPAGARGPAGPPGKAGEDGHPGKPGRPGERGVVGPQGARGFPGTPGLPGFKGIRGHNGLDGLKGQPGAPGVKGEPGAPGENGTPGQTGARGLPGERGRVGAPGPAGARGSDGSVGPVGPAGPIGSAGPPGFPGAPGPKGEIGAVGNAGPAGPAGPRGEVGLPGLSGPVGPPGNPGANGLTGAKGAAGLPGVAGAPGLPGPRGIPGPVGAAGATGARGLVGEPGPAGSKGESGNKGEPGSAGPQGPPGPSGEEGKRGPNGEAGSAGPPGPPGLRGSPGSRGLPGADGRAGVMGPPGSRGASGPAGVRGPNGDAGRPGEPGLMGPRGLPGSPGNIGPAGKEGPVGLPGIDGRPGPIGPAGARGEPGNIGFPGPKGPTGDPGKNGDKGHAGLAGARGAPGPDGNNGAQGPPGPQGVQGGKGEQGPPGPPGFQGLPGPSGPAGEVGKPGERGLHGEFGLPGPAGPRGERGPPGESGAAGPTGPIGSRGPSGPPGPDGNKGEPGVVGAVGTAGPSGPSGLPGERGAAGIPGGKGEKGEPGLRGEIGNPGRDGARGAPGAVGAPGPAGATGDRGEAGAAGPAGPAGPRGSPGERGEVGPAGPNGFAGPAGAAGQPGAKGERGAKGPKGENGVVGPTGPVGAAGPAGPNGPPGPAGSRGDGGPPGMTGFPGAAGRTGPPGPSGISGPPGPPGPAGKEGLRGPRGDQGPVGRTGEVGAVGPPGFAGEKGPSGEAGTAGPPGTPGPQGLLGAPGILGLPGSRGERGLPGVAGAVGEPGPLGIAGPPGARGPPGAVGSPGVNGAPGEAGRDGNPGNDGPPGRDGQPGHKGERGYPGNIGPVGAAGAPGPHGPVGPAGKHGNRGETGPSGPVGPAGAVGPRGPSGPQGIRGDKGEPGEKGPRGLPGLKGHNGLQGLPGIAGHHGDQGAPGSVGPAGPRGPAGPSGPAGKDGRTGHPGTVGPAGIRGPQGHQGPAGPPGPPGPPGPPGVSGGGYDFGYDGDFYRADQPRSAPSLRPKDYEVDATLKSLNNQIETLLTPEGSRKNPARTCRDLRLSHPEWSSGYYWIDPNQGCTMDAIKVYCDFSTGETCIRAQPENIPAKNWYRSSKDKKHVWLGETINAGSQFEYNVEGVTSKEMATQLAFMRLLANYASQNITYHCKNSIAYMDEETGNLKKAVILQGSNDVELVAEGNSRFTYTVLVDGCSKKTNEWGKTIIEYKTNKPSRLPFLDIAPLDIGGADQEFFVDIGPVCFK
UniProt Q9ULM6, whole entry, looked up: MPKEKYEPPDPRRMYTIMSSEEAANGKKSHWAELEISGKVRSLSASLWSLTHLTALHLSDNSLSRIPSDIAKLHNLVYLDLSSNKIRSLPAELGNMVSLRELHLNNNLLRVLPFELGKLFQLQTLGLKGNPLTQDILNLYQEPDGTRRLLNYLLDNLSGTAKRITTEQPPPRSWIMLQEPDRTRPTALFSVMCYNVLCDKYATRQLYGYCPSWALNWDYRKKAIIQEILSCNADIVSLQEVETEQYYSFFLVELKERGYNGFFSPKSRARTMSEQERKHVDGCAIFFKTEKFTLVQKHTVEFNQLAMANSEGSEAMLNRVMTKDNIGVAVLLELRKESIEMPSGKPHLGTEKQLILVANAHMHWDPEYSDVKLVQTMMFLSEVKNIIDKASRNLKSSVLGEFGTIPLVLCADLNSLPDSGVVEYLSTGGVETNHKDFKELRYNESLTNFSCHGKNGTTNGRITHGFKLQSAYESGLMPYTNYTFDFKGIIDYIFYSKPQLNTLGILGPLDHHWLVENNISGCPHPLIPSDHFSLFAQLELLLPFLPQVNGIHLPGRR
UniProt P39059: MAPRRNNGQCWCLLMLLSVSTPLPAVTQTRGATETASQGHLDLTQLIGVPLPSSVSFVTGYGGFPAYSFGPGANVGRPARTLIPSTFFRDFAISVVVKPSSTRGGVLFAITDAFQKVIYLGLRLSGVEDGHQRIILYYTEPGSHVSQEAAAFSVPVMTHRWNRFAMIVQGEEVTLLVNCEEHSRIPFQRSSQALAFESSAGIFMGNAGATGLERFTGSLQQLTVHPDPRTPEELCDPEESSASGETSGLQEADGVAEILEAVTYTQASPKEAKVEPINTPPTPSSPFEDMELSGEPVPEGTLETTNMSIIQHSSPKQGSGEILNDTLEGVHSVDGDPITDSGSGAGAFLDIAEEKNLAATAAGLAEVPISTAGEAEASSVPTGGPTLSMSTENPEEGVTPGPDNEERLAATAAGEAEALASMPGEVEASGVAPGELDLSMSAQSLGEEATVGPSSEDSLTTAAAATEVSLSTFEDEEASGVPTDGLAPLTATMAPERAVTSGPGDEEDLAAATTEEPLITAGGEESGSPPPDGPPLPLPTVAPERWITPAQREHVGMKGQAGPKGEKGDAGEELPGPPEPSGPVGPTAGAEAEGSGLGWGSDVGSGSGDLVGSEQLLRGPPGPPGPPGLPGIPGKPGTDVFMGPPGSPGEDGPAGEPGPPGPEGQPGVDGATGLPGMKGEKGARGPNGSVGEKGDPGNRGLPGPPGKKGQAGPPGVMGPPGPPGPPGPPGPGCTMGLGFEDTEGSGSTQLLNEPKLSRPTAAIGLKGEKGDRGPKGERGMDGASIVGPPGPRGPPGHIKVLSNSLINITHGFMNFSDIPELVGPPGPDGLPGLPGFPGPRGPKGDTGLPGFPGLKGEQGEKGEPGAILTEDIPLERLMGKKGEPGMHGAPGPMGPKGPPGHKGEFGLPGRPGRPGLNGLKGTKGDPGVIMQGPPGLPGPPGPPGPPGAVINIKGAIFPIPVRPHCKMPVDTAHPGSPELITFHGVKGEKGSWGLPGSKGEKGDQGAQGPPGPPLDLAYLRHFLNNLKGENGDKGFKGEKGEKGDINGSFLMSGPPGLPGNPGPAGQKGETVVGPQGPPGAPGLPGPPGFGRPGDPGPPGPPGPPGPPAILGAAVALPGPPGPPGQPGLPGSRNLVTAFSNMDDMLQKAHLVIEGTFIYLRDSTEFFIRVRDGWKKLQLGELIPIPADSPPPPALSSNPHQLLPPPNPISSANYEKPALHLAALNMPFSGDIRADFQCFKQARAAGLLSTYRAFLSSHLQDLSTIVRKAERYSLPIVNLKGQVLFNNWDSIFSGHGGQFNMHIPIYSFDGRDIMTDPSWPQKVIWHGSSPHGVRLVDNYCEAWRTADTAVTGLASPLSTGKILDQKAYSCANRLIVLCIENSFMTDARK
UniProt Q9P003: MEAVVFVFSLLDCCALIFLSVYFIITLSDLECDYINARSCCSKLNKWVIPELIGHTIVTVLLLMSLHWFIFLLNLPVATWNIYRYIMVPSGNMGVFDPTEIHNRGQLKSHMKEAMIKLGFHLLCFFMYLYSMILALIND
UniProt P0C7P0: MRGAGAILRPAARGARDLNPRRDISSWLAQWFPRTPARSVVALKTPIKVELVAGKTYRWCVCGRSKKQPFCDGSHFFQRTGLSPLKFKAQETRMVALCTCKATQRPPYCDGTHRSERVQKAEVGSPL
UniProt P54105: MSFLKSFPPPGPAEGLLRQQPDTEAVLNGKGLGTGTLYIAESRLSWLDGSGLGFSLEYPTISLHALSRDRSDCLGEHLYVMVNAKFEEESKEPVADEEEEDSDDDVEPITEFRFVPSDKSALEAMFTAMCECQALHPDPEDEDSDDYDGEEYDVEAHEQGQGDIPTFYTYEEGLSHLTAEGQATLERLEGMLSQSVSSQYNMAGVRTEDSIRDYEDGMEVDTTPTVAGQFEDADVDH
UniProt Q99828: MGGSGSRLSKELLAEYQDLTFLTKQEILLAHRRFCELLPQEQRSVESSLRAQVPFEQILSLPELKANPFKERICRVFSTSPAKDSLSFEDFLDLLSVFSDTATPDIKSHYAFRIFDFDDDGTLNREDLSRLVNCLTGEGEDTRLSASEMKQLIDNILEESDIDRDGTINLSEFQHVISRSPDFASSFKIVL
UniProt Q8NFW8: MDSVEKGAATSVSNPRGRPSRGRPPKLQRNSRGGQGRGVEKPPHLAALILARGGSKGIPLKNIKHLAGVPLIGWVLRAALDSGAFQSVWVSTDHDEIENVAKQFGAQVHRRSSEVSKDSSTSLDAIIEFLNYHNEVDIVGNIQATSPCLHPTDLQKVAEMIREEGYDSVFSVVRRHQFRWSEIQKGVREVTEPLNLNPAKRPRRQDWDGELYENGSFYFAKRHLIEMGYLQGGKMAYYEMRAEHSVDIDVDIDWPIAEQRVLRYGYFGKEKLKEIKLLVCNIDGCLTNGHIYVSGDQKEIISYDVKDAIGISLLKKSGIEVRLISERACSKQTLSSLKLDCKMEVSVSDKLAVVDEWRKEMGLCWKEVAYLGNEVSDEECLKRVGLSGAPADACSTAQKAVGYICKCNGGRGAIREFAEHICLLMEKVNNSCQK

The targets below were run with c1cn2cc(-c3ccc4cn[nH]c4c3)nc(Nc3ccc(N4CCOCC4)cc3)c2n1 [entospletinib] (assay: log2 fold change, soluble protein after heating vs DMSO (PISA); higher = thermal stabilisation; K562 cells, 10 uM, 30 min; active = over 0.2 and 3.5 SD of the protein, either way, in both replicates (recomputed)).
Procedure, shortened: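 K562 cells at 2×10^6 cells/mL were exposed to 10 μM compound for 30 min, then aliquots were heated for 3 min across 48°C-58°C, pooled, and extracted in PBS containing 0.5% NP-40 at 4°C. The supernatant after 21,000xg for 90 min was taken as soluble protein and measured by TMTpro 16plex LC-MS/MS with channel sums equalised. Thermal stability is reported relative to control samples, with values from duplicates. Fold changes are given on a log2 scale.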

log2 fold change, inactive:
CMTM6 (UniProt Q9NX76) 0.127
CMPK2 (UniProt Q5EBM0) -0.033
CKM (UniProt P06732) -0.043
CMIP (UniProt Q8IY22) 0.247
CIAO1 (UniProt O76071) 0.043
COL1A2 (UniProt P08123) 0.216
CINP isoform 3 (UniProt Q9BW66) -0.004
COA7 (UniProt Q96BR5) -0.079
CNOT6 (UniProt Q9ULM6) -0.073
COL15A1 (UniProt P39059) 0.059
CNIH4 (UniProt Q9P003) -0.038
CISD3 (UniProt P0C7P0) 0.014
CNBP (UniProt P62633) 0.046
CLNS1A (UniProt P54105) 0.046
CKMT2 (UniProt P17540) 0.06
CISD2 (UniProt Q8N5K1) 0
CMSS1 (UniProt Q9BQ75) -0.034
CNBP isoform 6 (UniProt P62633) 0.018
CNNM4 (UniProt Q6P4Q7) 0.054
CIB1 isoform 2 (UniProt Q99828) 0.026
CHORDC1 (UniProt Q9UHD1) 0.028
CMAS (UniProt Q8NFW8) 0.036
CMTM4 (UniProt Q8IZR5) 0.045
CISD1 (UniProt Q9NZ45) 0.047
CIAO3 (UniProt Q9H6Q4) -0.02
CLIC1 (UniProt O00299) 0.01
CMPK1 (UniProt P30085) 0.014
CLEC16A (UniProt Q2KHT3) -0.054
CLASRP (UniProt Q8N2M8) 0.029
COL14A1 (UniProt Q05707) -0.006

Quoted from above for reference:
log2 fold change, inactive:
CNIH4 (UniProt Q9P003) -0.038
CISD3 (UniProt P0C7P0) 0.014
